According to PubChem BioAssay AID1671190 (National Center for Advancing Translational Sciences (NCATS), 2021):
Out of some 580,000 compounds screened, about 6,100 (1.1%) were called active. Inconclusive results, whose numbers are uncertain, are shown with a selection of clear calls. Calls follow the shape of the dose curve; as a rule, active = well fitted inhibition curve with a large enough effect; inconclusive = small, poorly fitted or top-dose-only effect, or another doubt; inactive = no such curve, though single readings can be large or run the other way. Potencies beside an inconclusive call are fits to weak or partial responses and may not hold up.

Sequences of proteins named here, by UniProt entry; tags and fusion partners are left off. A change or cut given only in a name is not applied to a line headed by its entry.
UniProt P18054: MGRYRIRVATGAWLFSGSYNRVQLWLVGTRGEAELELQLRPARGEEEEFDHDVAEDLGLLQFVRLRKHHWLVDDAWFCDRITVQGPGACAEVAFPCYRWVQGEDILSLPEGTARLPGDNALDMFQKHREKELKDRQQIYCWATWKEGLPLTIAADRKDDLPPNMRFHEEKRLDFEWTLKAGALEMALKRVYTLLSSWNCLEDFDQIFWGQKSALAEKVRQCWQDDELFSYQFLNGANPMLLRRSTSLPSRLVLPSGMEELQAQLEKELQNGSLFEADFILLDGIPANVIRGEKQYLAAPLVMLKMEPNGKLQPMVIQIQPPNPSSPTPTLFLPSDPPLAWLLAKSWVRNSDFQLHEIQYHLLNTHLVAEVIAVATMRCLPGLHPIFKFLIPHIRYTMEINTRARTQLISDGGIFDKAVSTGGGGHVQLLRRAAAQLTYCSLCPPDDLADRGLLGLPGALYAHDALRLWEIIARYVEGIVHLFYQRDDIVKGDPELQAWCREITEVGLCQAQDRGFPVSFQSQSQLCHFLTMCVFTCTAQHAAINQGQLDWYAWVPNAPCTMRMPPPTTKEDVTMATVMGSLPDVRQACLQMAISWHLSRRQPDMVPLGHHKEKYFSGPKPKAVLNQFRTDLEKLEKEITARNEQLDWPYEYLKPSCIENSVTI

The molecules below were run against Polyunsaturated fatty acid lipoxygenase ALOX12 (Homo sapiens) (UniProt P18054) (assay: Primary qHTS assay for inhibitors of human arachidonate 12S-lipoxygenase (ALOX12): Round 2). Settings: purified 12hLO, xylenol orange hydroperoxide absorbance; activity change, negative = inhibition: at 108 µM (top of the series) unless noted.
Outline: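 Purified human 12hLO (150 nM final) in 25 mM Hepes, 0.01% Triton X-100, pH 7.0 was preincubated 15 min at room temperature with compound. Then 40 uM arachidonic acid was added, 30 min. Hydroperoxide was read by Fe-XO absorbance ratio 573/405 nm.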
% is scaled to controls: 0 for no effect and ±100 for the full control effect; potency is read from the fitted curve at half-maximal effect.

SMILES | Potency | activity change, negative = inhibition
O=C(NCCCOCC1CC1)c1cc(=O)[nH]c2ccccc12 | inconclusive: 112 µM [inhibitor, single point] | 
COC(=O)CCC(C)C1CCC2C3CCC4CC(O)CCC4(C)C3=CC(=O)C12C (configuration not stated) |  | inactive: 8.13%
COc1ccc(C2c3ccc(O)cc3Oc3ncn(CCCO)c(=N)c32)cc1 (configuration not stated) |  | inactive: -0.661%
COc1cccc(OCc2cc(C3C(C#N)=C(N)Oc4n[nH]c(C)c43)ccc2OC)c1 (configuration not stated) | inconclusive: 50.1 µM [inhibitor, partial curve, poor fit] | 
COc1ccc(CC(=O)Nc2nc(-c3nc4ccccc4s3)cs2)cc1 |  | inactive: -8.44%
CC(C)n1nc(C(=O)NCc2cc3ccccc3[nH]2)c2ccccc2c1=O | inconclusive: 15.8 µM [inhibitor, partial curve] | 
N#Cc1nc(COc2ccccc2)oc1N1CCCCC1 | inactive | 
Cc1c(C(=O)Nc2ccc(F)c(C(F)(F)F)c2)sc2nc(-c3ccc(F)cc3)cn12 | inconclusive: 31.6 µM [inhibitor, partial curve] | 
O=C(NC1CCCCC1)c1ccc2c(c1)N(Cc1ccccc1F)C(=O)c1ccccc1S2 | inconclusive: 100 µM [inhibitor, partial curve, poor fit] | 
CC(C)OP(=O)(OC(C)C)C1(O)C(=O)Nc2ccc(Br)cc21 (configuration not stated) | inconclusive: 39.8 µM [inhibitor, partial curve, poor fit] | 
CCOc1ccc(CNC(=O)CN2C(=O)C(c3ccccc3)Oc3cccnc32)cc1 (configuration not stated) |  | inactive: -2.28%
CCCNC(=O)NC(=O)COC(=O)c1ccc(S(=O)(=O)N(C)c2ccccc2OC)cc1 |  | inactive: 4.74%
O=C(CN1CCCCCC1)N/N=C/c1cccc(Cl)c1Cl | inconclusive: 1.12 µM [inhibitor, full curve] | 
O=C(Cc1ccc(Cl)cc1)NCCS(=O)(=O)N1CCN(c2ccccc2F)CC1 | inconclusive: 3.55 µM [inhibitor, full curve] | 
COc1cc(F)ccc1-c1csc(C(C)(O)c2ccccc2)n1 (configuration not stated) |  | inactive: -2.87%
CC(=O)c1ccc2c(c1)C1C=CCC1C(c1ccc(S(=O)(=O)N3CCOCC3)cc1)N2 (configuration not stated) | inconclusive: 44.7 µM [inhibitor, full curve, poor fit] | 
Cc1ccc(S(=O)(=O)N2CCC(c3nc4c(nnn4Cc4ccccc4)c(=O)[nH]3)CC2)cc1 | inconclusive: 50.1 µM [inhibitor, partial curve, poor fit] | 
Cc1ccc(/C=C(\NC(=O)c2ccccc2)C(=O)NCCN2CCOCC2)o1 | inconclusive: 10 µM [inhibitor, partial curve, poor fit] | 
CCS(=O)(=O)n1nc(-c2ccco2)nc1NCc1ccc(C(C)C)cc1 |  | inactive: -25.9%
CCCCn1c(SCC(=O)Nc2cccc(OC)c2)nc2ccc(N3CCOCC3)cc2c1=O | inconclusive: 0.631 µM [inhibitor, full curve, poor fit] | 
O=c1cc(-c2cccnc2)nc(-c2ccc(CN3CCCC(F)(F)C3)cc2)[nH]1 |  | inactive: 6.24%

SMILES | Potency | activity change, negative = inhibition
CCc1nc2c(c(-c3ccc(Cl)cc3)n1)CCN([S+](=O)([O-])c1cccc(C(F)(F)F)c1)CC2 |  | inactive: 40.3%
CCNC(=O)Nc1ccc(OCC(=O)NCc2ccc(C)cc2)nc1 |  | inactive: 29.6%
CN(C)c1cccc(CNC(=O)c2csc([C@@H]3O[C@H](CO)[C@@H](O)[C@H]3O)n2)c1 | inconclusive: 112 µM [inhibitor, single point] | 
c1cc(-c2n[nH]c(CC3CCNC3)n2)ccn1 (configuration not stated) | inconclusive: 4.47 µM [inhibitor, full curve, poor fit] | 
CCOC(=O)c1c(/N=C/C2=C(O)CC(C)(C)CC2=O)sc2c1CCCC2 | inconclusive: 31.6 µM [inhibitor, single point] | 
COc1ccc(C(=O)N2CCC[C@@]3(CCN(Cc4ccncc4)C3)C2)cc1 | inconclusive: 28.2 µM [inhibitor, single point] | 
Cc1ccc(NC2c3ncccc3C(=O)N2Cc2ccco2)c(C)c1 (configuration not stated) | inconclusive: 50.1 µM [inhibitor, partial curve, poor fit] | 
CSC1(SC2=NCCN2)SC2(NCCN2)S1 | inconclusive: 50.1 µM [inhibitor, partial curve, poor fit] | 
O=C1C(n2cccc2)c2ccccc2N1Cc1ccc(C(F)(F)F)cc1 (configuration not stated) |  | inactive: -23%
COc1cccc(OC)c1OCCCN1CCC(Cc2ccccc2)CC1 | active: 11.2 µM | 
O=C(c1ccc(OC(F)F)cc1)N1CCC(NS(=O)(=O)c2cccs2)CC1 |  | inactive: -4.41%
CCN(CC)S(=O)(=O)c1ccc(N2CC(C(=O)NCCc3c[nH]c4ccccc34)CC2=O)cc1 (configuration not stated) | inconclusive: 56.2 µM [inhibitor, partial curve, poor fit] | 
O/N=C/c1ccccc1Cl | inconclusive: 112 µM [inhibitor, partial curve, poor fit] | 
N#CCCn1nc(-c2ccc([N+](=O)[O-])cc2)cc1Nc1ccccc1NC(=O)C(F)(F)F |  | inactive: -22.2%
COc1ccc(CC(C)N2CCN(c3cccc(C(F)(F)F)c3)CC2)cc1OC (configuration not stated) | inconclusive: 39.8 µM [inhibitor, partial curve, poor fit] | 
Cc1ccc(C)c(NS(=O)(=O)c2cc(C(=O)Nc3ccccc3-c3ccccc3)ccc2C)c1 |  | inactive: -9.27%
CN(C)CCOc1ccc(C(=C(CCCl)c2ccccc2)c2ccccc2)cc1 | inconclusive: 35.5 µM [inhibitor, partial curve, poor fit] | 
CCc1ccc(Cn2nnc3c(=O)[nH]c(C4CCCN(C(=O)c5cccc(Cl)c5)C4)nc32)cc1 (configuration not stated) | inconclusive: 50.1 µM [inhibitor, partial curve, poor fit] | 
COc1cc(Br)cc2cc(-c3nc(-c4nonc4N)no3)c(=O)oc12 | inconclusive: 35.5 µM [inhibitor, partial curve, poor fit] | 
Cc1ccc(F)cc1Nc1ncnc(N)c1[N+](=O)[O-] | inconclusive: 100 µM [inhibitor, single point] | 
Cc1cccc(C(=O)NNS(=O)(=O)c2ccccc2[N+](=O)[O-])c1 | inconclusive: 6.31 µM [inhibitor, full curve, poor fit] | 

In the list so far, 2 have a thiophene ring, fused or not:
SMILES | Potency | activity change, negative = inhibition
CCOC(=O)c1c(/N=C/C2=C(O)CC(C)(C)CC2=O)sc2c1CCCC2 | inconclusive: 31.6 µM [inhibitor, single point] | 
O=C(c1ccc(OC(F)F)cc1)N1CCC(NS(=O)(=O)c2cccs2)CC1 |  | inactive: -4.41%
